{"source": "PubChem BioAssay AID720505 (Drosophila RNAi Screening Center, 2013)", "screen": "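Fly regulators or components of the CRAC channel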 (primary screen)", "cells": "Drosophila S2R+ cells", "knock-down reagent": "long dsRNA against Drosophila genes", "treatment": "thapsigargin (2 µM) in calcium-free buffer to empty internal stores, then 2 mM calcium added back", "detection": "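Stores emptied by 2 µM thapsigargin without calcium, then 2 mM calcium re-added; fluo-4 fluorescence followed by FLIPR in 384-well plates, per-well averaged endpoint, raw; two screen passes, some wells retested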", "direction": "calcium signal and retest calcium signal: higher = more calcium entry after store depletion", "rule for the call": "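Knock-downs counted as hits when calcium entry dropped relative to STIM1 positive and Rho1 negative controls present on each plate; roughly 1500 genes called, with reductions of differing size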", "calls": "active = called as lowering calcium entry; inactive = not called", "note": "The deposit covers about 20,000 reagents; below is an unselected part of those with a known target gene and a result. In the full data, about 2,100 (10%) got an active call. 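Raw plate signals without normalisation; calls rest on control-based scores that were not deposited; replicate 2 separates called from uncalled poorly.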 A number with no mark means an inactive call. A plus sign joins genes that one reagent is predicted to hit. Not stated in the record: the amount of reagent, the time to read-out."}
{"Target gene": "Phax (Phosphorylated adaptor for RNA export)", "DRSC id": "DRSC07066", "calcium signal, replicate 1": 148, "calcium signal, replicate 2": 189}
{"Target gene": "CG8202", "DRSC id": "DRSC16396", "calcium signal, replicate 1": 79.3, "calcium signal, replicate 2": 169}
{"Target gene": "Cys (Cystatin-like)", "DRSC id": "DRSC16637", "calcium signal, replicate 1": 134, "calcium signal, replicate 2": 277}
{"Target gene": "ine (inebriated)", "DRSC id": "DRSC00822", "calcium signal, replicate 1": 148, "calcium signal, replicate 2": 136}
{"Target gene": "Pdcd4 (Programmed cell death 4)", "DRSC id": "DRSC19360", "calcium signal, replicate 1": 107, "calcium signal, replicate 2": 95.3}
{"Target gene": "Hsp60C (Heat shock protein 60C)", "DRSC id": "DRSC03036", "calcium signal, replicate 1": 141, "calcium signal, replicate 2": 108}
{"Target gene": "RacGAP84C (Rac GTPase activating protein at 84C)", "DRSC id": "DRSC12630", "calcium signal, replicate 1": 110, "calcium signal, replicate 2": 113}
{"Target gene": "CG4238", "DRSC id": "DRSC00090", "calcium signal, replicate 1": "61.5 (active)", "calcium signal, replicate 2": 160}
{"Target gene": "CG4238", "DRSC id": "DRSC00644", "calcium signal, replicate 1": 108, "calcium signal, replicate 2": 139}
{"Target gene": "betaTry (betaTrypsin)", "DRSC id": "DRSC07582", "calcium signal, replicate 1": 119, "calcium signal, replicate 2": 192, "retest calcium signal, replicate 1": 10700, "retest calcium signal, replicate 2": 180}
{"Target gene": "betaTry (betaTrypsin)", "DRSC id": "DRSC22377", "calcium signal, replicate 1": 67.9, "calcium signal, replicate 2": 186}

Reformatted: 4 of the entries above.
{"Target gene":"CG4238","DRSC id":"DRSC00090","calcium signal, replicate 1":"61.5 (active)","calcium signal, replicate 2":160}
{"Target gene":"CG4238","DRSC id":"DRSC00644","calcium signal, replicate 1":108,"calcium signal, replicate 2":139}
{"Target gene":"betaTry (betaTrypsin)","DRSC id":"DRSC07582","calcium signal, replicate 1":119,"calcium signal, replicate 2":192,"retest calcium signal, replicate 1":10700,"retest calcium signal, replicate 2":180}
{"Target gene":"betaTry (betaTrypsin)","DRSC id":"DRSC22377","calcium signal, replicate 1":67.9,"calcium signal, replicate 2":186}

The listing continues:
{"Target gene": "CG43155", "DRSC id": "DRSC19642", "calcium signal, replicate 1": 102, "calcium signal, replicate 2": 108}
{"Target gene": "CG43155", "DRSC id": "DRSC19777", "calcium signal, replicate 1": 114, "calcium signal, replicate 2": 103}
{"Target gene": "Xpd (Xeroderma pigmentosum D)", "DRSC id": "DRSC04666", "calcium signal, replicate 1": 152, "calcium signal, replicate 2": 78.8}
{"Target gene": "RpS8 (Ribosomal protein S8)", "DRSC id": "DRSC16318", "calcium signal, replicate 1": "106 (active)", "calcium signal, replicate 2": 123}
{"Target gene": "mEFG1 (mitochondrial translation elongation factor G 1)", "DRSC id": "DRSC02758", "calcium signal, replicate 1": "72.2 (active)", "calcium signal, replicate 2": 136}
{"Target gene": "CG17883", "DRSC id": "DRSC07838", "calcium signal, replicate 1": 82.6, "calcium signal, replicate 2": 124}
{"Target gene": "Prim1 (DNA primase subunit 1)", "DRSC id": "DRSC11137", "calcium signal, replicate 1": 82.7, "calcium signal, replicate 2": 45.9}
{"Target gene": "Det (Deterin)", "DRSC id": "DRSC14489", "calcium signal, replicate 1": 159, "calcium signal, replicate 2": 173}
{"Target gene": "vis + achi", "DRSC id": "DRSC07277", "calcium signal, replicate 1": 133, "calcium signal, replicate 2": 203}
{"Target gene": "wit (wishful thinking)", "DRSC id": "DRSC08741", "calcium signal, replicate 1": 108, "calcium signal, replicate 2": 114}
{"Target gene": "CG4914", "DRSC id": "DRSC10458", "calcium signal, replicate 1": 82.4, "calcium signal, replicate 2": 165}
{"Target gene": "CG7848", "DRSC id": "DRSC07050", "calcium signal, replicate 1": 132, "calcium signal, replicate 2": 112}
{"Target gene": "Loxl1 (Lysyl oxidase-like 1)", "DRSC id": "DRSC14303", "calcium signal, replicate 1": 94.1, "calcium signal, replicate 2": 116}
{"Target gene": "Ras64B (Ras oncogene at 64B)", "DRSC id": "DRSC08689", "calcium signal, replicate 1": 80.5, "calcium signal, replicate 2": 91.4}
{"Target gene": "Gr58c (Gustatory receptor 58c)", "DRSC id": "DRSC04136", "calcium signal, replicate 1": 187, "calcium signal, replicate 2": 95.2}
{"Target gene": "P5cr (Pyrroline 5-carboyxlate reductase)", "DRSC id": "DRSC16782", "calcium signal, replicate 1": 166, "calcium signal, replicate 2": 146}
{"Target gene": "CG9067", "DRSC id": "DRSC07328", "calcium signal, replicate 1": 104, "calcium signal, replicate 2": 160}
